PubChem BioAssay AID1671195, Yale University – 2021

Assay: 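Regulators of LDL receptor activity judged by labelled LDL uptake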 (primary screen)
Cell system: human Huh7 hepatoma cells
Reagents: siRNA pool against human genes, 18 nM
Duration: about 2 to 2.5 days of knockdown, then 8 h LDL uptake
Challenge: DiI-labelled LDL at 30 µg/ml for 8 h, in lipoprotein-deficient serum medium
Read-out: 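Fluorescent LDL signal imaged in cells, scaled to the plate median, robust z-score for each replicate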
Scale: robust z-score: higher = more LDL uptake after knockdown
Rule for the call: 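Active when two or more replicates show a robust z-score above 2 or below -2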
Here is a random part of about 22,000 reagents. About 1,510 of all reagents (6.9%) were called active. 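Active includes knockdowns raising or lowering LDL uptake; positive z-scores mean more uptake, negative mean less.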 A number with no mark means an inactive call. Reagent sequences are not shown.

no.	target gene	robust z-score, replicate 1	robust z-score, replicate 2	robust z-score, replicate 3
1	TPST1 (tyrosylprotein sulfotransferase 1)	-1.37	-1.19	-1.25
2	KRT26 (keratin 26)	-0.672	-0.334	-0.0234
3	GOLT1B (golgi transport 1B)	0.444	-0.761	-2.22
4	FLG2 (filaggrin 2)	1.48	0.949	1.35
5	RFX3 (regulatory factor X3)	0.894	0.88	0.824
6	PIGZ	2.07 (active)	2.96	3.01
7	TET1 (tet methylcytosine dioxygenase 1)	1.02	0.704	1.28
8	LOC387643 (retired record)	-0.114	0.209	-0.0283
9	DNAJC8 (DnaJ heat shock protein family (Hsp40) member C8)	-0.172	0.129	0.159
10	TGFBR1 (transforming growth factor beta receptor 1)	0.733	0.794	0.76
11	TRIM52 (tripartite motif containing 52)	-1.43	-0.875	-0.21
12	WDR24 (WD repeat domain 24)	0.14	0.211	-0.324
13	SNCB (synuclein beta)	-0.396	0.684	-0.167
14	ZNF367 (zinc finger protein 367)	-0.667	-0.692	-1.4
15	AKR1B15 (aldo-keto reductase family 1 member B15)	1.58	2.2	1.29
16	COG8 (component of oligomeric golgi complex 8)	0.718	0.274	1.09
17	C11orf68 (chromosome 11 open reading frame 68)	-0.555	-0.83	-1.16
18	MRPL11 (mitochondrial ribosomal protein L11)	0.37	0.145	0.162
19	PMAIP1 (phorbol-12-myristate-13-acetate-induced protein 1)	-0.777	-0.427	0.309
20	RAB20 (RAB20, member RAS oncogene family)	3.06	0.146	0.916
21	FIRRE (firre intergenic repeating RNA element)	0.679	0.965	0.961
22	LOC388515 (retired record)	1.76	2.15	-2.14
23	DSN1 (DSN1 component of MIS12 kinetochore complex)	-0.757	-1.11	-0.514
24	LOC440458 (retired record)	-0.516	-0.697	-0.571
25	LOC388616 (retired record)	-0.635	-0.264	-0.69
26	CHMP6 (charged multivesicular body protein 6)	-0.604	-0.0712	-0.834
27	TNKS (tankyrase)	-0.484	-0.344	-0.496
28	FERMT3 (FERM domain containing kindlin 3)	1.36	-0.0353	-0.729
29	ZNF544 (zinc finger protein 544)	0.73	0.873	1.12
30	TMEM63C (transmembrane protein 63C)	0.584	0.935	-0.0268
31	OR52A4P (olfactory receptor family 52 subfamily A member 4 pseudogene)	2.17 (active)	2.24	2.97
32	LOC441542 (retired record)	0.796	0.67	0.143
33	NPR1 (natriuretic peptide receptor 1)	-0.636	0.397	-0.445
34	TEX41 (testis expressed 41)	0.53	0.329	0.694
35	RPTN (repetin)	0.685	1.7	1.77
36	SCN3B (sodium voltage-gated channel beta subunit 3)	2.18 (active)	1.67	2.05
37	SPDYE1 (speedy/RINGO cell cycle regulator family member E1)	0.086	0.207	0.345
38	ASH1L (ASH1 like histone lysine methyltransferase)	0.493	-0.279	0.524
39	SLC36A3	-0.136	-0.164	-0.426
40	LOC401270 (retired record)	2.61 (active)	2.2	2.63
41	DCBLD1 (discoidin, CUB and LCCL domain containing 1)	-1.07	-0.796	-0.679
42	DHX8 (DEAH-box helicase 8)	-0.947	-1	-1.12
43	NDUFB9 (NADH:ubiquinone oxidoreductase subunit B9)	1.4	1.78	0.68
44	BRWD3 (bromodomain and WD repeat domain containing 3)	0.411	0.764	0.633
45	FLT4 (fms related receptor tyrosine kinase 4)	-0.661	-1.18	-0.76
46	CIMIP2A (ciliary microtubule inner protein 2A)	0.608	0.253	-1.16
47	IL23A (interleukin 23 subunit alpha)	-2.08	-1.39	-0.492
48	CDKN1C (cyclin dependent kinase inhibitor 1C)	-2.09 (active)	-1.94	-0.587
49	GPR137C (G protein-coupled receptor 137C)	-0.000604	0.358	0.0395
50	SPANXN5 (SPANX family member N5)	1.24	0.649	0.535
51	SNTA1 (syntrophin alpha 1)	1.56	0.442	0.797
52	FABP5P10 (fatty acid binding protein 5 pseudogene 10)	0.156	0.311	0.32
53	AICDA (activation induced cytidine deaminase)	1.21	1.37	1.51
54	ANGPT2 (angiopoietin 2)	-1.29	-0.312	-0.687
55	ELF1 (E74 like ETS transcription factor 1)	2.15 (active)	1.87	2.03
56	TAS2R50 (taste 2 receptor member 50)	0.182	0.618	0.646
57	LOC392533 (retired record)	-0.724	-0.00195	-0.0474
58	LOC399866 (retired record)	0.551	0.964	0.888
59	EDARADD (EDAR associated via death domain)	-1.13	-0.255	0.382
60	KRTAP2-2 (keratin associated protein 2-2)	0.0112	-0.671	0.751
61	LRRC39 (leucine rich repeat containing 39)	0.373	0.218	-0.691
62	RNF149 (ring finger protein 149)	0.0214	-0.316	-0.374
63	OR6X1 (olfactory receptor family 6 subfamily X member 1)	0.227	0.327	0.206
64	CYB5R5 (cytochrome b5 reductase 5 (putative))	1.25	1.55	1.16
65	MED28 (mediator complex subunit 28)	-0.17	-0.098	-0.17
66	LRRC37BP1 (leucine rich repeat containing 37B pseudogene 1)	-1.55	-1.33	-1.3
67	BRSK1 (BR serine/threonine kinase 1)	-0.869	-0.849	-1.17
68	LGALS7 (galectin 7)	-2.03	-1.39	-1.79
69	ZFP36L2 (ZFP36 like 2 zinc finger CCCH-type)	0.867	0.855	0.902
70	UFSP1 (UFM1 specific peptidase 1)	0.101	1.69	0.913
71	SIRT4 (sirtuin 4)	-0.149	0.143	1.48
72	PRKRA	1.47	1.17	1.01
73	NSD3 (nuclear receptor binding SET domain protein 3)	-1.72	-0.571	-0.661
74	NDUFS4 (NADH:ubiquinone oxidoreductase subunit S4)	-0.518	-0.785	-0.71
75	LHX3 (LIM homeobox 3)	-0.619	-0.319	0.159
76	LINC02693 (long independently transcribed non-coding RNA 2693)	1.1	1.08	1.23
77	NFE2L2 (NFE2 like bZIP transcription factor 2)	0.22	-0.127	0.0589
78	RASL11A (RAS like family 11 member A)	0.36	0.467	0.445
79	LOC387846 (retired record)	1.11	0.651	0.599
80	CREBBP (CREB binding lysine acetyltransferase)	-1.82 (active)	-1.93	-2.13
81	RGS1 (regulator of G protein signaling 1)	-0.611	-0.654	-0.509
82	OR51L1 (olfactory receptor family 51 subfamily L member 1)	0.543	0.082	0.41
83	LOC442452 (retired record)	-0.746	-0.501	-0.839
84	TM2D1 (TM2 domain containing 1)	-0.373	-0.771	0.316
85	PLTP (phospholipid transfer protein)	-0.102	0.828	1.2
86	CIROZ	0.157	-0.162	-0.368
87	HOPX (HOP homeobox)	-1.81	-1.25	-0.39

Part of the list above, limited to “robust z-score, replicate 1”.
TRIM52 (tripartite motif containing 52) = -1.43
WDR24 (WD repeat domain 24) = 0.14
SNCB (synuclein beta) = -0.396
ZNF367 (zinc finger protein 367) = -0.667
AKR1B15 (aldo-keto reductase family 1 member B15) = 1.58
COG8 (component of oligomeric golgi complex 8) = 0.718
C11orf68 (chromosome 11 open reading frame 68) = -0.555
MRPL11 (mitochondrial ribosomal protein L11) = 0.37
PMAIP1 (phorbol-12-myristate-13-acetate-induced protein 1) = -0.777
RAB20 (RAB20, member RAS oncogene family) = 3.06
FIRRE (firre intergenic repeating RNA element) = 0.679
LOC388515 (retired record) = 1.76
DSN1 (DSN1 component of MIS12 kinetochore complex) = -0.757
LOC440458 (retired record) = -0.516
